In all, about 300,000 compounds went through this assay and about 5,400 (1.8%) were called active. Inconclusive results, whose numbers are uncertain, are shown with a selection of clear calls. The call rests on the fitted dose curve; tested in HEK293 cells. Potencies of inconclusive entries are doubtful fits and often do not repeat.
Experiment: qHTS for inhibitors of binding or entry into cells for Marburg Virus
Settings: Marburg virus pseudotyped entry inhibition, cell reporter; activity change, negative = inhibition: at 37.8 µM (top of the series) unless noted
With `CSc1ccccc1-n1nnnc1SCC(=O)Nc1ccccc1C` the “activity change, negative = inhibition” value was inactive: -6.34%. With `CO/C(N)=C(\C#N)N=Cc1ccccc1Cl` the “activity change, negative = inhibition” value was inactive: 14.7% [at 46.1 µM]. In the case of `CC(C)(C)C(=O)NC(Nc1cccc2cccnc12)C(Cl)(Cl)Cl` (stereo not drawn), the Potency is reported as inconclusive: 20 µM [inhibitor, partial curve, poor fit]. In the case of `COc1cccc(-c2cc(C(=O)Nc3cc(C)on3)no2)c1`, the Potency is reported as inconclusive: 10.3 µM [activator, partial curve, poor fit]. With `CC1(C)CNC(=O)c2sc(N3CCOCC3)nc2C1` the Potency was inconclusive: 29.1 µM [inhibitor, single point]. In the case of `O=C(CSc1nnc(-c2ccc(Cl)s2)o1)N1CCc2ccccc21`, the “activity change, negative = inhibition” value is reported as inactive: -2.35%. For `COC(=O)c1cc(C#N)c(OC(C)C)nc1C`, the Potency was inconclusive: 15.8 µM [activator, single point]. In the case of `CCOc1ccccc1N(CC(=O)N1CCC(C(N)=O)CC1)S(=O)(=O)c1ccc(SC)cc1`, the “activity change, negative = inhibition” value is reported as inactive: 15.5%. With `C1=Nc2c(NCc3ccccc3)ncnc2Oc2ccccc21` the Potency was inconclusive: 20 µM [inhibitor, partial curve, poor fit]. With `CC(=O)NCCNC(=O)c1ccc2c(=O)n(CCc3ccccc3)c(=O)[nH]c2c1` the Potency was inconclusive: 3.55 µM [activator, full curve, poor fit]. For `O=C(NCCCN1CCOCC1)c1sc2cc(Cl)ccc2c1Cl`, the Potency was inconclusive: 31.6 µM [activator, single point]. In the case of `O=C(Cc1ccc(Br)cc1)NC1CCN(Cc2ccccc2)CC1`, the Potency is reported as inconclusive: 12.6 µM [inhibitor, partial curve, poor fit]. With `O=C(CCCSc1nc2ccccc2[nH]1)Nc1ccccc1` the Potency was inconclusive: 7.94 µM [inhibitor, partial curve, poor fit]. For `CCCc1[nH]nc2c1C(c1cn[nH]c1-c1ccc(F)cc1)C(C#N)=C(N)O2` (stereo not drawn), the “activity change, negative = inhibition” value was inactive: -15.4%. With `CC(C)CN(CC(C)C)c1nc(N)c(C#N)c(CC#N)c1C#N` the Potency was inconclusive: 35.5 µM [inhibitor, single point]. For `Cc1nc2nc(C)c(CCC(=O)NCc3cccc(Cl)c3)c(C)n2n1`, the “activity change, negative = inhibition” value was inactive: -4.11% [at 46.1 µM]. For `Cc1ccccc1OCCn1nc(C(=O)O)c2ccccc2c1=O`, the Potency was inconclusive: 22.4 µM [inhibitor, single point]. With `Cc1nn(-c2ccccc2)c(Cl)c1/C=N/Nc1ccc(S(=O)(=O)Nc2ccccc2C(=O)O)cc1[N+](=O)[O-]` the Potency was “inactive”. In the case of `COc1ccc(CNC(=O)CNC(=O)c2ccc(Br)o2)cc1OC`, the “activity change, negative = inhibition” value is reported as inactive: 0.128% [at 46.1 µM]. In the case of `COC(=O)c1ccc(COc2cccc(OC)c2)o1`, the “activity change, negative = inhibition” value is reported as inactive: 14.4%. For `Cc1ccc(-c2nc3cc(Cl)ccc3o2)cc1`, the Potency was inconclusive: 14.1 µM [inhibitor, single point]. For `Cc1nc2oc(C(=O)c3ccccc3)c(N)c2c2c1COC(C)(C)C2`, the Potency was inconclusive: 1.26 µM [inhibitor, single point]. For `C=Cn1ccnc1P(=S)(c1nccn1C=C)C1CCCCC1`, the Potency was inconclusive: 18.3 µM [inhibitor, partial curve, poor fit]. In the case of `CCCC(=O)N1CCN(Cc2ccc3c(c2)OCO3)CC1`, the Potency is reported as inconclusive: 7.94 µM [activator, partial curve, poor fit]. In the case of `CCCn1c2c(c(O)c(C(=O)Nc3ccc(C)cn3)c1=O)CCCC2`, the “activity change, negative = inhibition” value is reported as inactive: 1.99%. In the case of `COc1ccc(-c2nnc(SCc3ccccc3)n2N)cc1`, the “activity change, negative = inhibition” value is reported as inactive: 4.82%. In the case of `Cc1ccc(C(c2nnnn2C2CCCC2)N2c3ccccc3CC2C)cc1` (stereo not drawn), the “activity change, negative = inhibition” value is reported as inactive: -16.8%. With `Cc1cc(C)cc(OCC(=O)N2N=C(C(F)(F)F)CC2(O)C(C)(C)C)c1` (stereo not drawn) the Potency was inconclusive: 35.5 µM [inhibitor, single point]. With `Cc1ccc(C2=NN=C(NC(=O)C(F)(F)F)SC2)cc1` the Potency was inconclusive: 1.12 µM [activator, single point]. With `CCn1c(=O)cc(SCC(=O)NCc2ccc(C)o2)c2ccccc21` the Potency was inconclusive: 4.11 µM [inhibitor, full curve]. In the case of `COC(=O)c1ccc(CSc2nc3ccncc3n2Cc2ccc(F)cc2)cc1`, the Potency is reported as inconclusive: 0.891 µM [activator, partial curve, poor fit]. In the case of `COc1ccc(N=Nc2c(C)[nH]c3ccccc23)cc1`, the Potency is reported as inconclusive: 5.62 µM [activator, single point]. With `CS(=O)(=O)N1CCN(c2ccccc2NC(=O)c2ccc([N+](=O)[O-])o2)CC1` the Potency was inconclusive: 35.5 µM [inhibitor, single point]. In the case of `COCCN(C(=O)CCC(=O)Nc1ccccn1)C(C(=O)NCCC(C)C)c1ccc(C)cc1` (stereo not drawn), the “activity change, negative = inhibition” value is reported as inactive: -17.7% [at 46.1 µM]. With `CC(=O)Oc1cc2c(C(C)=O)coc2c2ccccc12` the Potency was inconclusive: 11.6 µM [activator, partial curve, poor fit]. With `O=P(OC1CCCCC1)(OC1CCCCC1)C(O)c1ccc(Cl)cc1Cl` (stereo not drawn) the Potency was inconclusive: 29.1 µM [inhibitor, single point]. In the case of `O=c1oc2cc(Oc3ccc(C(F)(F)F)cc3[N+](=O)[O-])ccc2c2c1CCCC2`, the “activity change, negative = inhibition” value is reported as inactive: 2.03%. In the case of `Cc1cnc(NC(=O)c2ccc(-c3nc4ccccc4s3)o2)s1`, the Potency is reported as “inactive”. For `CCc1nnc(NC(=O)c2ccc(OC)cc2OC)s1`, the Potency was inconclusive: 8.2 µM [inhibitor, partial curve, poor fit]. In the case of `NNC(=O)c1nnn(-c2nonc2N)c1CN1CCc2ccccc2C1`, the Potency is reported as inconclusive: 20 µM [inhibitor, partial curve, poor fit]. In the case of `CCn1nnc(NC(=O)c2cccnc2)n1`, the Potency is reported as inconclusive: 35.5 µM [activator, single point]. With `CCOC(=O)c1ccc(N(C(=O)c2cnccn2)C(C(=O)NC2CCCCC2)c2cn(C)nc2C)cc1` (stereo not drawn) the Potency was inconclusive: 1.03 µM [inhibitor, partial curve, poor fit]. With `CC(=O)c1c(C)cc(C)c(CSc2nnc(-c3ccco3)o2)c1C` the “activity change, negative = inhibition” value was inactive: -7.48%. For `COc1cc(C2Nc3ccc4ccccc4c3C3=C2C(=O)CC(C)(C)C3)ccc1OC(C)C(=O)O` (stereo not drawn), the Potency was inconclusive: 0.891 µM [inhibitor, full curve, poor fit]. In the case of `CCc1ccc(-c2cc(C(F)(F)F)n3nc(C(=O)Nc4cnn(Cc5ccc(C)cc5)c4)cc3n2)s1`, the Potency is reported as active: 9.2 µM. For `CC(Oc1ccc(-c2ccccc2)c(F)c1)c1ccn(S(=O)(=O)c2cccc3ccccc23)n1` (stereo not drawn), the Potency was inconclusive: 35.5 µM [inhibitor, single point]. In the case of `Cc1ccccc1-c1cc(C(=O)Nc2sc(C(=O)OC(C)C)c(C)c2C#N)c2ccccc2n1`, the Potency is reported as active: 11.6 µM. With `Cc1ccc(SCC(=O)N2CCN(c3ccc(F)cc3)CC2)cc1` the Potency was inconclusive: 6.31 µM [inhibitor, single point]. With `CCc1ccc(N2C(=O)c3cc(N4CCOCC4)c([N+](=O)[O-])cc3C2=O)cc1` the “activity change, negative = inhibition” value was inactive: -23.1%. With `COCc1cc(C)nc(SCC(=O)Nc2ccc(C)c(C)c2)c1C#N` the Potency was “inactive”. In the case of `Cc1nc2scc(C)n2c(=O)c1S(=O)(=O)N1CCN(c2ccccn2)CC1`, the “activity change, negative = inhibition” value is reported as inactive: -0.538% [at 46.1 µM]. With `CC(=O)NNC(=S)Nc1cc(S(=O)(=O)N(C)C)ccc1C` the Potency was inconclusive: 0.199 µM [activator, full curve, poor fit]. In the case of `CC(=O)Nc1ccc(NC(=O)COc2ccc(Br)cc2C)cc1`, the “activity change, negative = inhibition” value is reported as inactive: -26%. In the case of `O=C(NCC(c1cccs1)N1CCOCC1)c1cc(S(=O)(=O)N2CCOCC2)c(Cl)cc1Cl` (stereo not drawn), the Potency is reported as inconclusive: 35.5 µM [activator, single point]. In the case of `CCCCCCn1c(O)c(C=NC2CCCCC2N)c(=O)[nH]c1=O` (stereo not drawn), the “activity change, negative = inhibition” value is reported as inactive: -28.2%. For `CCOC(=O)/C=C1\SCC(=O)N1CC(=O)NC(C)C`, the Potency was inconclusive: 0.708 µM [activator, single point]. In the case of `O=C(CN1C(=O)NC2(CCc3ccccc3C2)C1=O)Nc1ccc(F)cc1` (stereo not drawn), the Potency is reported as inconclusive: 0.282 µM [activator, partial curve, poor fit]. For `COc1ccccc1-n1cnc2cc(NC(=O)c3ccco3)ccc21`, the Potency was inconclusive: 14.6 µM [inhibitor, partial curve]. In the case of `O=C(Cn1nnc(-c2ccccc2)n1)OC1CCOC1=O` (stereo not drawn), the “activity change, negative = inhibition” value is reported as inactive: 15.5%. With `O=C(/C=C/c1ccccc1)Nn1cnc2ccccc2c1=O` the Potency was inconclusive: 2.82 µM [inhibitor, partial curve, poor fit]. For `O=C(Nc1ccc(C(F)(F)F)cn1)Nc1cccs1`, the “activity change, negative = inhibition” value was inactive: 20.6%. In the case of `C=CCOc1cc(OC)c(OC)c(OC)c1`, the “activity change, negative = inhibition” value is reported as inactive: 17.8% [at 46.1 µM]. With `CSc1ncc2[nH]c(C(O)c3ccccc3)nc2n1` (stereo not drawn) the Potency was inconclusive: 5.62 µM [inhibitor, partial curve, poor fit]. In the case of `COC(=O)CCC(=O)Nc1ccc(N=Nc2ccccc2)cc1`, the “activity change, negative = inhibition” value is reported as inactive: -11.2% [at 46.1 µM]. With `C/C(CCC(C)C)=N\NC(=O)COc1ccccc1-c1ccccc1` the Potency was inconclusive: 14.1 µM [inhibitor, single point]. With `S=c1sc2c(N3CCN(Cc4ccccc4)CC3)ncnc2n1-c1ccccc1` the Potency was inconclusive: 3.55 µM [activator, full curve, poor fit]. In the case of `Cn1cc(Br)c(C(=O)NNC(=O)Cc2ccc(Cl)cc2)n1`, the Potency is reported as inconclusive: 12.6 µM [activator, single point]. In the case of `Cc1ccc(C(=O)Nc2ccccc2OC(F)F)cc1`, the “activity change, negative = inhibition” value is reported as inactive: 27.7%. In the case of `O=c1cc(-c2ccccc2)[nH]n1-c1nc2ccccc2s1`, the Potency is reported as inconclusive: 0.126 µM [inhibitor, full curve, poor fit]. With `O=C1c2ccccc2C(=O)N1c1cccc(-c2nc3ccccc3o2)c1` the “activity change, negative = inhibition” value was inactive: 0.118%. With `COc1cc(-c2noc(CCCC(=O)NCc3ccco3)n2)cc(OC)c1OC` the “activity change, negative = inhibition” value was inactive: 0.437%. With `COc1ccc(S(=O)(=O)N(C)c2ccc(C(=O)N3CCCCC3)cc2)cc1` the Potency was inconclusive: 28.2 µM [inhibitor, partial curve, poor fit]. For `COc1cc(/C=C2/C(=O)ON=C2c2ccccc2)ccc1O`, the “activity change, negative = inhibition” value was inactive: -3.61%.

From PubChem BioAssay AID540276 (National Center for Advancing Translational Sciences (NCATS), 2011)
On the % scale 0 is the no-effect control and ±100 the full control effect; potency means the concentration at half of the fitted maximal effect.
